# The whole screen tested about 300,000 compounds, of which about 3,700 (1.2%) were called active. The shares of active, inactive and inconclusive entries below differ from those in the screen. Calls come from the whole dose curve; tested in HEK293 cells. Potencies of inconclusive entries are doubtful fits and often do not repeat.
# Experiment: qHTS for Inhibitors of binding or entry into cells for Lassa Virus; note: nearly all actives have a fitted effect of over 50% in size
# Settings: Lassa virus pseudotype entry inhibition, cell reporter; activity change, negative = inhibition: at 37.9 µM (top of the series) unless noted
# % is set by controls: 0 for no effect and ±100 for the full control effect; potency is the fitted concentration of half-maximal effect.
SMILES,"activity change, negative = inhibition",Potency
Cc1onc(-c2ccccc2)c1C(=O)Nc1ccncc1,inactive: 2.29%,
Cc1nn(CC(=O)N2CCCCC2)c(=O)c2cc3occc3n12,,"inconclusive: 1.12 µM [activator, full curve]"
CC(C)(C)C(=O)N1CCN(c2ccc([N+](=O)[O-])cc2Cl)CC1,,"inconclusive: 32.6 µM [inhibitor, single point]"
CS(=O)(=O)NC1c2cccc3cccc(c23)C1N1CCOCC1 (stereo not given),inactive: -3.65%,
Cc1cc(C)c(C#N)c(SCCN2CCCCC2)n1,,"inconclusive: 15.8 µM [activator, partial curve, poor fit]"
CCOCCCN(C)C1CCN(C(=O)c2oc3ccccc3c2NC(=O)COc2cccc(C)c2)CC1,,"inconclusive: 10 µM [inhibitor, partial curve, poor fit]"
Cc1ccc(Cl)cc1NC(=O)CCS(=O)(=O)c1ccc2c(c1)n(C)c(=O)c(=O)n2C,inconclusive: 7.77% [activator] [at 46.1 µM],
Cc1ccc(-n2c3nc(=O)[nH]c(=O)c-3cc3c(C)nn(-c4ccccc4)c32)c(C)c1,,"inconclusive: 0.794 µM [activator, full curve, poor fit]"
CC(=O)Nc1ccc(N2CCCC(C)C2)c([N+](=O)[O-])c1 (stereo not given),inactive: -0.45%,
CN(C)CCn1c(=O)n(Cc2ccccc2)c(=O)c2c3c(sc21)CCCCC3,,"inconclusive: 35.5 µM [inhibitor, single point]"
CCCCC(=O)N/N=C/c1cc([N+](=O)[O-])ccc1N1CCOCC1,inactive: 4.35%,
c1ccc(C2CC(c3cccs3)=NN2c2ccccc2)cc1 (stereo not given),,"inconclusive: 12.6 µM [inhibitor, single point]"
Cc1ccc(CN(Cc2ccco2)c2cnc(S(C)(=O)=O)nc2C(=O)Nc2ccccc2Br)o1,inactive: 6.6% [at 46.1 µM],
CCN(CC)C(=O)c1ccc(NC(=O)CSc2nnnn2-c2cc(OC)ccc2OC)cc1,,"inconclusive: 23.1 µM [inhibitor, single point]"
COCCNC(=O)C(c1ccccc1F)N(C(=O)C(=O)NC1CCCC1)C1CCCCC1 (stereo not given),,"inconclusive: 0.891 µM [inhibitor, full curve, poor fit]"
Cc1cc(C)cc(NC(=O)Cn2cc(C(=O)c3ccccc3)c(=O)c3ccc(C)nc32)c1,inactive: 16.5% [at 46.1 µM],
C=CCc1c(C)nc(SCc2ccccc2)[nH]c1=O,inactive: 11.3%,
O=C(/C=C/c1cccs1)Nc1ccc([N+](=O)[O-])cc1,inactive: 3.07%,
Cc1csc(NC(=O)C2COc3ccccc3O2)n1 (stereo not given),,"inconclusive: 10 µM [inhibitor, partial curve, poor fit]"
Cn1c(=O)c2nc(SCC(=O)Nc3ccc(Cl)c(Cl)c3)n(C)c2n(C)c1=O,inactive: -25.7% [at 46.1 µM],

# Sorted by SMILES length (high to low): 3 of the compounds above.
SMILES,"activity change, negative = inhibition",Potency
Cn1c(=O)c2nc(SCC(=O)Nc3ccc(Cl)c(Cl)c3)n(C)c2n(C)c1=O,inactive: -25.7% [at 46.1 µM],
CS(=O)(=O)NC1c2cccc3cccc(c23)C1N1CCOCC1 (stereo not given),inactive: -3.65%,
c1ccc(C2CC(c3cccs3)=NN2c2ccccc2)cc1 (stereo not given),,"inconclusive: 12.6 µM [inhibitor, single point]"

# From PubChem BioAssay AID540256 (National Center for Advancing Translational Sciences (NCATS), 2011)
